The record followed here is PubChem BioAssay.

Some of the results follow. These are further read-outs of the screen, such as a control signal, another cell line or another target. No call is given for them. For some assays here: The list favours compounds with an active or inconclusive main result.

One assay in a line: PubChem AID 1586. As to conditions: yeast two-hybrid polyglutamine protein interaction, reporter readout; measured here: averaged growth delta OD.
A short description of assay [1]: enhancers of SMN2 over SMN1 splicing, cell-based, SMN2/SMN1 luciferase reporters (AID 1598). As to conditions: SMN2 vs SMN1 luciferase splicing reporter cells, at 10 µM; SMN1 luciferase ratio: measured here: SMN1 luciferase reporter average; SMN2 luciferase ratio: measured here: SMN2 luciferase reporter average, stronger effect = higher value. In general terms: Reporter assays use an easily measured gene product as a stand-in for the process of interest.

Assay [2] can be described thus: protection against mutant huntingtin cytotoxicity, PC12 cells, LDH release (AID 1610). As to conditions: PC12 mutant huntingtin toxicity, final LDH at 4 uM, stronger effect = lower value. A general note: LDH leaks from cells whose membrane has failed.

In turn, `CC(=O)Nc1ccc(OCC(O)CNC(C)C)cc1` (stereo unspecified) came in with a signal change (36 h minus 0 h) in the assay “PubChem AID 1586” of 0.583. Besides, in assay [1], the SMN1 luciferase ratio was determined as 0.91 and the SMN2 luciferase ratio amounted to 0.94. In assay [2], this compound returned a normalised LDH release of 0.224.

In “PubChem AID 1586”, `CC12CCC(CC1=O)C2(C)C` (stereo unspecified) showed a signal change (36 h minus 0 h) of 0.365. In assay [1], the SMN1 luciferase ratio was found to be 0.93 and the SMN2 luciferase ratio was found to be 0.94. The normalised LDH release in assay [2] was 0.982.

In the assay “PubChem AID 1586”, `Cn1c(=O)c2[nH]cnc2n(C)c1=O` showed a signal change (36 h minus 0 h) of 0.165. In addition, in assay [1], the SMN1 luciferase ratio turned out to be 0.83 and the SMN2 luciferase ratio came to 0.88. The compound further came in with a normalised LDH release in assay [2] of 1.

Consider `Cc1cc(Nc2ccccc2C(=O)O)ccc1Cl`, for which the signal change (36 h minus 0 h) in “PubChem AID 1586” worked out at 0.184. In assay [1], the SMN1 luciferase ratio turned out to be 0.86 and the SMN2 luciferase ratio is 0.88. Moreover, the normalised LDH release in assay [2] amounted to 0.546.

`CCOC(=O)C(Cc1ccc(O)cc1)NC(C)=O` (stereo unspecified): the signal change (36 h minus 0 h) in “PubChem AID 1586” is 0.189. Further, in assay [1], the SMN1 luciferase ratio is 0.95 and the SMN2 luciferase ratio worked out at 1. The same compound came in with a normalised LDH release in assay [2] of 1.03.

The compound `CCCN(CCC)C(=O)C(CCC(=O)O)NC(=O)c1ccccc1` (stereo unspecified) displayed a signal change (36 h minus 0 h) in the assay “PubChem AID 1586” of 0.333. In assay [1], the SMN1 luciferase ratio amounted to 0.94 and the SMN2 luciferase ratio was 0.99. Further, the normalised LDH release in assay [2] was found to be 0.486.

In “PubChem AID 1586”, `CSc1ccc2c(c1)N(CCC1CCCCN1C)c1ccccc1S2` (stereo unspecified) had a signal change (36 h minus 0 h) of 0.0977. In assay [1], the SMN1 luciferase ratio was found to be 0.8 and the SMN2 luciferase ratio is 0.98. Further, the normalised LDH release in assay [2] was 0.997.

In the assay “PubChem AID 1586”, `CN(C)CCCN1c2ccccc2Sc2ccccc21` returned a signal change (36 h minus 0 h) of 0.193. Also, in assay [1], the SMN1 luciferase ratio turned out to be 0.81 and the SMN2 luciferase ratio was determined as 0.85. The same compound gave a normalised LDH release in assay [2] of 0.863.

`CC(=O)N[C@@H]1[C@@H](C(O)[C@H](O)CO)O[C@](O)(C(=O)O)C[C@@H]1O` (stereo partly specified) gave a signal change (36 h minus 0 h) in the assay “PubChem AID 1586” of 0.222. For the same compound, in assay [1], the SMN1 luciferase ratio is 1.04 and the SMN2 luciferase ratio is 1.19. The same compound registered a normalised LDH release in assay [2] of 1.37.

`NNCCc1ccccc1` gave a signal change (36 h minus 0 h) in the assay “PubChem AID 1586” of 0.0741. In addition, in assay [1], the SMN1 luciferase ratio was determined as 0.86 and the SMN2 luciferase ratio turned out to be 0.93. In assay [2], the normalised LDH release turned out to be 1.08.

In “PubChem AID 1586”, `CC(=O)N(O)CCCCCNC(=O)CCC(=O)N(O)CCCCCNC(=O)CCC(=O)N(O)CCCCCN` had a signal change (36 h minus 0 h) of 0.133. Further, in assay [1], the SMN1 luciferase ratio is 0.79 and the SMN2 luciferase ratio came out at 0.7. The compound further yielded a normalised LDH release in assay [2] of 0.929.

For the compound `CC[C@]12CCCN3CCc4c(n(c5ccccc45)C(=O)C1)[C@@H]32`, the signal change (36 h minus 0 h) in “PubChem AID 1586” was found to be 0.122. Also, in assay [1], the SMN1 luciferase ratio was 1.04 and the SMN2 luciferase ratio is 1.09. In assay [2], this compound yielded a normalised LDH release of 0.789.

In turn, `O=C1c2c(O)cccc2Cc2cccc(O)c21` came in with a signal change (36 h minus 0 h) in “PubChem AID 1586” of 0.124. For the same compound, in assay [1], the SMN1 luciferase ratio is 0.93 and the SMN2 luciferase ratio came out at 0.93. The compound also returned a normalised LDH release in assay [2] of 0.847.

In the assay “PubChem AID 1586”, `CC(C)NCC(O)COc1cccc2ccccc12` (stereo unspecified) yielded a signal change (36 h minus 0 h) of 0.0393. In assay [1], the SMN1 luciferase ratio is 0.75 and the SMN2 luciferase ratio was 0.8. Also, the normalised LDH release in assay [2] came to 0.929.
